Results published in PMC12040169 (PLOS Biology, 2025).
The list shows a part of the results.

Test system: T1, CTL2-GFP (C. trachomatis L2/434/Bu, GFP-expressing)
T1 construct: L2/434/Bu, GFP-expressing
Design: species or system HeLa; Intracellular C. trachomatis growth in HeLa cells, bulk GFP fluorescence relative to DMSO
Conditions: bulk GFP, single well; 28.5 h, 10 µM; inhibitor

Going from `CCOC(=O)c1cnc2cc(C)ccn2c1=O` [CBK086650] to `Cc1ncsc1CCN(C)C(=O)Cn1nc(C)c2ccccc2c1=O` [CBK306893], the “% of control remaining” value rises from 108.582% to 151.145%.

First: C#CCOc1cc(Br)c(/C=C(/C#N)c2ccc([N+](=O)[O-])cc2)cc1OCC [CBK266617]
Second: O=[N+]([O-])c1ccc(CCNCC(O)COc2cccc3c2CCCC3)cc1 (stereo not shown) [CBK003083]
The “% of control remaining” value of the first is higher: 96.0932% for the first, 95.5559% for the second.

Going from `CCc1ccc(NS(=O)(=O)c2cnn(CC)c2)cc1` [CBK270314] to `O=S(=O)(Nc1ccc(Cc2ccncc2)cc1)N1CCCC1` [CBK268263], the “% of control remaining” value rises from 90.8547% to 96.3277%.

Compared with `O=c1[nH]c(-c2cc(Cc3ccccc3Cl)ccc2O)nc2ccccc12` [CBK291220], `O=C(c1ccccc1)c1cn[nH]c1-c1ccccc1O` [CBK287970] is lower in “% of control remaining” value: 128.725% for the first, 126.904% for the second.

Going from `Cc1cc2ncc3c(n2n1)CC1CCC3N1Cc1ccc(F)c(F)c1` (stereo not shown) [CBK284378] to `COCCN(Cc1cnn(C)c1)C(=O)c1ccc2oc(C)cc2c1` [CBK307059], the “% of control remaining” value rises from 104.784% to 117.155%.

Going from `O=C(/C=C/c1ccccc1)ONC(=O)c1ccc(Cl)cc1` [CBK263702] to `O=C(CCN1C(=O)/C(=C\C=C\c2ccccc2)SC1=S)Nc1ccc(C(=O)O)cc1` [CBK264818], the “% of control remaining” value rises from 86.0779% to 134.061%.

Compared with `Cc1cc(NS(=O)(=O)c2ccc(Nc3nc(-c4cccs4)cs3)cc2)no1` [CBK262504], `O=c1ccc2cc(S(=O)(=O)Nc3ccc4[nH]ccc4c3)ccc2o1` [CBK062503] is higher in “% of control remaining” value: 15.739% for the first, 146.975% for the second.

Compared with `O=S(=O)(Nc1cccc(Cl)c1Cl)c1ccc(Cl)c(Cl)c1` [CBK017446], `CCn1cc(CN(CCOC)C(=O)c2cc3c(Cl)cccc3[nH]2)cn1` [CBK306903] is lower in “% of control remaining” value: 116.349% for the first, 71.7703% for the second.

First: O=C(CSc1nnnn1C1CC1)Nc1ccc(CN2CCOCC2)cc1 [CBK305857]
Second: N#Cc1ccnc(SCC(=O)Nc2ccc(CN3CCOCC3)cc2)c1 [CBK306010]
The “% of control remaining” value of the first is higher: 116.339% for the first, 110.551% for the second.

Going from `FC(F)(F)c1cccc(OCCOc2nccnc2N2CCNCC2)c1` [CBK014518G] to `Fc1ccc(COc2cccc(CNCc3ccccn3)c2)cc1` [CBK269987C], the “% of control remaining” value rises from 94.883% to 115.99%.

Going from `CCn1cc(C2CN(S(=O)(=O)c3cccc(C)c3Cl)CCO2)cn1` (stereo not shown) [CBK304226] to `CC(C)Cc1nnc(-c2ccccc2Cl)n1CC1CC1` [CBK200097], the “% of control remaining” value rises from 124.016% to 170.245%.

Compared with `CC(=O)Nc1cccc(-n2nnnc2SCCCCCF)c1` [CBK306164], `Cn1nnnc1SCc1nc(N)nc(Nc2ccccc2)n1` [CBK268092] is lower in “% of control remaining” value: 99.946% for the first, 87.8451% for the second.

Going from `Cc1ccc(Oc2ncccc2NC(=O)CN2CCC(NC(=O)c3ccccc3)CC2)c2c1CCC2` [CBK074715] to `Cn1c(=O)c2c(ncn2CC(=O)Nc2ccccc2I)n(C)c1=O` [CBK133275], the “% of control remaining” value rises from 94.4266% to 124.837%.

First: O=C1CC2(C(=O)N1Cc1ccccc1)C(=O)N(Cc1csc(-c3ccccc3)n1)c1ccccc12 (stereo not shown) [CBK075673]
Second: Cc1nnc(N2C(=O)c3oc4ccc(Cl)cc4c(=O)c3C2c2cccc(OCc3ccccc3)c2)s1 (stereo not shown) [CBK266870]
The “% of control remaining” value of the first is lower: 116.303% for the first, 182.651% for the second.

Compared with `O=[N+]([O-])c1cccc(-c2cc(NCCc3ccccn3)ncn2)c1` [CBK091087], `CC(C)(C)c1ccnc(N[C@H]2CO[C@H]3[C@@H]2OC[C@@H]3NC(=O)NCc2ccccc2)n1` [CBK289522] is lower in “% of control remaining” value: 171.372% for the first, 121.864% for the second.

Going from `CC(=O)Nc1cc(NC(C)=O)c(C)c(C(=O)O)c1` [CBK286623] to `O=C(O)C1CNC(=O)N1C(=O)OCc1ccccc1` (stereo not shown) [CBK057462], the “% of control remaining” value rises from 127.717% to 132.809%.

First: CC1CNCCC1n1nc(-c2cccs2)ccc1=O (stereo not shown) [CBK284221]
Second: CC(=O)c1ccc(-c2cc(N3CCN(CCN4CCCC4)CC3)ncn2)s1 [CBK091169]
The “% of control remaining” value of the first is lower: 131.267% for the first, 242.621% for the second.

First: CC(C)(C)OC(=O)N1CCC(CNS(=O)(=O)c2ccc3c(c2)OCCO3)CC1 [CBK076971]
Second: NC(=O)C1(N2CCCCC2)CCN(C(=S)Nc2ccc(S(N)(=O)=O)cc2)CC1 [CBK265900]
The “% of control remaining” value of the first is higher: 156.352% for the first, 131.376% for the second.

Compared with `Cc1nn(Cc2nnc(SCC(=O)C(C)(C)C)o2)c(C)c1Br` [CBK005646], `CC(=O)N1CCN(C[C@@H]2C=C(C)[C@H](Cc3nnc(C)o3)C[C@H]2C(C)C)CC1` [CBK289219] is lower in “% of control remaining” value: 131.881% for the first, 89.7058% for the second.

Going from `CCCCS(=O)(=O)N1CCN(CCc2ccccc2)CC1` [CBK270316] to `Cc1ccc(C2=NN(C(=N)SC3CC(=O)N(c4ccc(C(=O)O)cc4)C3=O)C(c3ccc(Br)cc3)C2)cc1` (stereo not shown) [CBK263497], the “% of control remaining” value falls from 136.237% to 106.421%.
